Among the data in PMC9701223 are binding values, retold here.

By UniProt entry, the sequences of proteins in these tests, tags left out.
UniProt Q9VQ93: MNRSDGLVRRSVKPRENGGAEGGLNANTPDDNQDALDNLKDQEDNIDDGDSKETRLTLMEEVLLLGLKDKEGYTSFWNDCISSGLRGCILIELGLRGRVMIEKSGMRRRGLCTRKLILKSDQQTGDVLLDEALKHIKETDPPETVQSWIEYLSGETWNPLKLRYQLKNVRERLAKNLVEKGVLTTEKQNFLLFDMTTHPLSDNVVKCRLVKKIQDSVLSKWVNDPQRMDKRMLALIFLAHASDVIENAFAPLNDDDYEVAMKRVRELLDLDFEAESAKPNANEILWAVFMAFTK

The target of assay [1] is T1, GST-14-3-3ζ (Drosophila melanogaster) (UniProt P29310).
T1 sequence: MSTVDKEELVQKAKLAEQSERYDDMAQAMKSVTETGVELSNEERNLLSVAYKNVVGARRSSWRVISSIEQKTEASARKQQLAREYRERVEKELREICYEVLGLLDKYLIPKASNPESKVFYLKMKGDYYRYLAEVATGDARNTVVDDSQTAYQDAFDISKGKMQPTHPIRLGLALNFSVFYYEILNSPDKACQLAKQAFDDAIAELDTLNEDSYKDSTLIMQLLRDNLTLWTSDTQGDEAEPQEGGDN
Kind of assay: pull-down; GST or GST-tagged protein (4 µg) on glutathione-Sepharose 4B beads, incubated with Drosophila S2 cell lysate, 4 °C, 2 h; wash 25 mM Tris-HCl pH 7.4, 150 mM NaCl, 1% NP-40, 1 mM EDTA; western blot; only the target purified. (A western blot detects proteins with antibodies after separation by electrophoresis.)

The target in assay [2] is T2, GST-Tctp (Drosophila Translationally controlled tumor protein) (Drosophila melanogaster) (UniProt Q9VGS2).
T2 sequence: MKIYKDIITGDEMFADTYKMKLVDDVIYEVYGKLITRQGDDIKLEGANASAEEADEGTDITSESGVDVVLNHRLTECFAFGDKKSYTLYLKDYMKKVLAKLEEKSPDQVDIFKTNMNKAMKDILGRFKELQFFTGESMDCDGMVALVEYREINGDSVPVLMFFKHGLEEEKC
Described as above.

The target of assay [3] is T3, Tctp-HA (HA-tagged Tctp) (Drosophila melanogaster) (UniProt Q9VGS2).
T3 sequence: T2 sequence
Kind of assay: co-IP; anti-HA agarose beads on lysates of pupae overexpressing Tctp-HA, with or without knockdown of dGOLPH3 (RNAi); Buffer A, 4 °C; eluted with 200 mM glycine pH 2.0.

Assay [4] deals with T1, GST-14-3-3ζ (Drosophila melanogaster). Kind of assay: pull-down; GST or GST-tagged protein (4 µg) on glutathione-Sepharose 4B beads, incubated with testis extracts expressing dGOLPH3-HA, 4 °C, 2 h; wash 25 mM Tris-HCl pH 7.4, 150 mM NaCl, 1% NP-40, 1 mM EDTA; western blot; only the target purified.
In assay [5] the target is T4, GST-Lst8 (Drosophila melanogaster) (UniProt Q9W328).
T4 sequence: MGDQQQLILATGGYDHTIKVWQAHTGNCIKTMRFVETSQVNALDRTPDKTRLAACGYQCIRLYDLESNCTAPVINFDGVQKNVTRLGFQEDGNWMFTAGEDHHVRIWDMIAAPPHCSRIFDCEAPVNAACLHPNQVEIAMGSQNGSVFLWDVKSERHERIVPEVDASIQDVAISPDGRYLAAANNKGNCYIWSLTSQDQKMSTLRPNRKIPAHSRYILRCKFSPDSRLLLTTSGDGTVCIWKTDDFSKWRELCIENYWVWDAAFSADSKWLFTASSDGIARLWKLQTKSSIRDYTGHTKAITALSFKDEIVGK
The description is as above.

These are yes or no findings as the source states them, for the method shown. Binding seen in cells or lysates may run through a third protein. Some results given as binding are weak or reduced against the parent protein; the word gives no strength. Tags and fused reporters may be left off the sequences shown.

Regarding “dGOLPH3 (Drosophila Golgi phosphoprotein 3), endogenous in S2 cells (from UniProt Q9VQ93 1-294)”, the binding entry in assay [1] and in assay [2] was “binds” in each case.

Consider “dGOLPH3 (Drosophila Golgi phosphoprotein 3), endogenous in pupae (from UniProt Q9VQ93 1-294)”, for which, in assay [3], the binding result is given as “binds”.

For the substance “dGOLPH3-HA (hemagglutinin tagged dGOLPH3) (from UniProt Q9VQ93 1-294)”, the binding result in assay [4] and in assay [5] was “binds” in each case.
